Test results published in patent publication US20190211317A1, “PEPTIDES AND NANOPARTICLES FOR INTRACELLULAR DELIVERY OF GENOME-EDITING MOLECULES” (Aadigen, LLC, priority 2016, published 2019).
Some of these results come from one statement about several compounds together.

Key:
[1] = test system: endogenous EMX1 and exogenous EGFP reporter genes in GFP-U2OS, EGFP-JURKAT cells; assay: Delivery of multiple RGEN/gRNA complexes: EMX1 and EGFP editing; type: cell-based, human; details: both genes, 25 nM
Method: RNAiMAX delivery was used as positive control. Cells were treated as described previously and CAS9-induced NHEJ analyzed 72 hr after transfection. […] The deletion (indel) frequency in the EMX1 gene was quantified using the T7E1 assay and loss of EGFP expression was monitored by flow cytometry. Data for on-target mutations induced by RGEN/gRNA are reported as an average of 3 separate experiments.

[2] = test system: EGFP reporter gene in EGFP-U2OS, EGFP-HEK, EGFP-JURKAT cells; assay: EGFP reporter gene disruption from CPP delivery of CAS9:sgRNA (flow cytometry); type: cell-based, human; details: both cell lines (U2OS, HEK);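 note: cells carrying one integrated EGFP reporter received peptide-complexed CAS9 preloaded 1:1 with EGFP sgRNA, cultured 72 h, then EGFP level read by flow cytometry, lipofectamine 2000 and RNAiMAX as positive controls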

N=C(N)NCCC[C@H](NC(=O)[C@H](CCCNC(=N)N)NC(=O)[C@H](CCCCN)NC(=O)[C@H](CCCNC(=N)N)NC(=O)[C@@H]1CCCN1C(=O)[C@H](Cc1c[nH]c2ccccc12)NC(=O)[C@H](CCC(=O)O)NC(=O)[C@H](CCCNC(=N)N)NC(=O)[C@H](Cc1c[nH]c2ccccc12)NC(=O)[C@H](Cc1c[nH]c2ccccc12)NC(=O)[C@H](CCCNC(=N)N)NC(=O)[C@H](CCC(=O)O)NC(=O)[C@H](Cc1c[nH]c2ccccc12)NC(=O)[C@H](Cc1c[nH]c2ccccc12)NC(=O)[C@H](CCCCN)NC(=O)CCN)C(=O)O [VEPEP-3b]
mean indel frequencies [1]: more than 70% | reduction of EGFP-positive cells [2]: more than 85%
